# Record: PubChem BioAssay AID1224830 (NIAID, 2016)
# Test: 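Host factors that control LPS-induced TNF expression in human macrophages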 (primary screen)
# Cells: human THP-1 monocytic leukaemia cells, TNF dual-luciferase reporter clone, PMA-differentiated to macrophage-like cells
# Reagents: siRNA pool against human genes, 50 nM
# Duration: LPS for 4 h, given about 3 days after siRNA transfection
# Conditions: bacterial LPS (TLR4 ligand), 10 ng/ml
# Detection: 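TNF firefly reporter luminescence divided by renilla, normalised to the plate median, then turned into a robust z-score for each replicate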
# Reading the numbers: TNF reporter robust z-score: higher = stronger TNF reporter response to LPS
# Active means: 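Each well counts as active if its z-score is over 2.8 or under -1.5; controls are left without a call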
# The deposit covers about 18,000 reagents; below is a part drawn at random. About 2,900 of all reagents (16%) were called active. 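Calls are made per well; low scores hint the gene aids the LPS response, high scores that it dampens it.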 Repeated entries: four replicate wells of each siRNA pool.
Gene,TNF reporter robust z-score,call
KERA,-0.04,inactive
KERA,0.22,inactive
KERA,-0.2,inactive
KERA,0.15,inactive
CRYAB,0.53,inactive
CRYAB,-0.03,inactive
CRYAB,0.31,inactive
CRYAB,-0.64,inactive
PRMT1,0.14,inactive
PRMT1,-0.22,inactive
PRMT1,1.72,inactive
PRMT1,0.03,inactive
PCDHA3,-1.15,inactive
PCDHA3,-1.18,inactive
PCDHA3,-2.23,active
PCDHA3,-1.87,active
AMBP,2.49,inactive
AMBP,3.1,active
AMBP,1.4,inactive
AMBP,3.48,active
ENPP3,-0.58,inactive
ENPP3,0.8,inactive
ENPP3,0.34,inactive
ENPP3,1.55,inactive
VRTN,0.66,inactive
VRTN,-0.37,inactive
VRTN,-1.13,inactive
VRTN,-0.68,inactive
SNRPB2,0.73,inactive
SNRPB2,0.11,inactive
SNRPB2,0.47,inactive
SNRPB2,0.98,inactive
SFSWAP,-0.19,inactive
SFSWAP,0.64,inactive
SFSWAP,-0.31,inactive
SFSWAP,0.31,inactive
RSPO3,-0.89,inactive
RSPO3,-1.14,inactive
RSPO3,-1.29,inactive
RSPO3,-0.38,inactive
GPAM,0.59,inactive
GPAM,0.43,inactive
GPAM,0.71,inactive
GPAM,0.4,inactive
SATL1,0.25,inactive
SATL1,0.62,inactive
SATL1,0.24,inactive
SATL1,0.89,inactive
GMEB1,1.94,inactive
GMEB1,2.97,active
GMEB1,1.03,inactive
GMEB1,1.43,inactive
ARFGEF3,1.01,inactive
ARFGEF3,1.81,inactive
ARFGEF3,3.27,active
ARFGEF3,0.54,inactive
GSTO2,-0.35,inactive
GSTO2,-0.31,inactive
GSTO2,0.02,inactive
GSTO2,0.51,inactive
TWIST2,-1.5,inactive
TWIST2,-1.59,active
TWIST2,-1.3,inactive
TWIST2,-0.96,inactive
LCA5,-0.09,inactive
LCA5,-0.69,inactive
LCA5,0.22,inactive
LCA5,-0.75,inactive
PPP2R2B,-0.23,inactive
PPP2R2B,0.16,inactive
PPP2R2B,-0.5,inactive
PPP2R2B,0.38,inactive
EAPP,-1.42,inactive
EAPP,-0.5,inactive
EAPP,-0.91,inactive
EAPP,1.86,inactive
SATB1,-1.1,inactive
SATB1,0.34,inactive
SATB1,-0.95,inactive
SATB1,-1.52,active
LIPA,1.78,inactive
LIPA,-0.65,inactive
LIPA,-0.86,inactive
LIPA,-0.01,inactive
MIB1,-0.1,inactive
MIB1,2.15,inactive
MIB1,-0.79,inactive
MIB1,-0.55,inactive
NIPSNAP1,0.61,inactive
NIPSNAP1,-0.35,inactive
NIPSNAP1,-0.28,inactive
NIPSNAP1,1.15,inactive
UTP20,-1.7,active
UTP20,-1.02,inactive
UTP20,-0.22,inactive
UTP20,0.19,inactive
DDHD2,-0.77,inactive
DDHD2,-0.95,inactive
DDHD2,-0.5,inactive
DDHD2,-0.18,inactive
NOBOX,0.19,inactive
NOBOX,-0.11,inactive
NOBOX,-1.39,inactive
NOBOX,1.43,inactive
PTPRN2,0.36,inactive
PTPRN2,-0.65,inactive
PTPRN2,-0.17,inactive
PTPRN2,-0.89,inactive
MED8,-1.48,inactive
MED8,-1.03,inactive
MED8,-1.15,inactive
MED8,-1.14,inactive
